Our source for the binding values is PMC10272187.

Sequences of proteins named here, by UniProt entry; tags and fusion partners are left off.
UniProt P30153: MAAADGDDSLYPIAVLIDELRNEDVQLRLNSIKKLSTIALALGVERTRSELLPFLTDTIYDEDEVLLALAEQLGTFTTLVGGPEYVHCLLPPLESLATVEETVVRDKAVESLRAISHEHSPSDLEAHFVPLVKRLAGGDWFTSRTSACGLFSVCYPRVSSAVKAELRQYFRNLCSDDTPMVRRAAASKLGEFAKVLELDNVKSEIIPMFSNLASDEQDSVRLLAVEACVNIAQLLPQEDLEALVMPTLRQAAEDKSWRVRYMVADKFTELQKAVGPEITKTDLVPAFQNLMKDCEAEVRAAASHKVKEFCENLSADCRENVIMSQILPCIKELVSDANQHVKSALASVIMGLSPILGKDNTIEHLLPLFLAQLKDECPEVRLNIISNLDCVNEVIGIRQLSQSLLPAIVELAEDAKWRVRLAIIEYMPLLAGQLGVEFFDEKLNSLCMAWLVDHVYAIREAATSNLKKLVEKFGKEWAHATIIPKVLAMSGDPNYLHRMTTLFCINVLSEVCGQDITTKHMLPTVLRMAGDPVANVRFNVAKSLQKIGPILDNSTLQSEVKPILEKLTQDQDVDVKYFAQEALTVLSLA
UniProt Q92558: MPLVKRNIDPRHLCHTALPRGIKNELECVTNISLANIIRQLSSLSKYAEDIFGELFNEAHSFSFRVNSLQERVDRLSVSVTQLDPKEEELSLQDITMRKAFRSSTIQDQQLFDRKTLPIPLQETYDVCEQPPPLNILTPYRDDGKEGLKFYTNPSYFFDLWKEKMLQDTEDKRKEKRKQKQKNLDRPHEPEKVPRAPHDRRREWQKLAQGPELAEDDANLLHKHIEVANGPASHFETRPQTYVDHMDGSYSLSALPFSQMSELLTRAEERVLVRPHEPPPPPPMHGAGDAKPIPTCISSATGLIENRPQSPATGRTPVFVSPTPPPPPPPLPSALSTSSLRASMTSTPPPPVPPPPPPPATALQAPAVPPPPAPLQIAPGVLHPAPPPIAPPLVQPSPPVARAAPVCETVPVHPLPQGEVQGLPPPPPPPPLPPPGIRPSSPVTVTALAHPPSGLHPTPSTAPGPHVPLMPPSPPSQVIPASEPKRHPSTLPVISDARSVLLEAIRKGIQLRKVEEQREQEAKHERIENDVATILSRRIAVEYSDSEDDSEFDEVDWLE
UniProt Q15172: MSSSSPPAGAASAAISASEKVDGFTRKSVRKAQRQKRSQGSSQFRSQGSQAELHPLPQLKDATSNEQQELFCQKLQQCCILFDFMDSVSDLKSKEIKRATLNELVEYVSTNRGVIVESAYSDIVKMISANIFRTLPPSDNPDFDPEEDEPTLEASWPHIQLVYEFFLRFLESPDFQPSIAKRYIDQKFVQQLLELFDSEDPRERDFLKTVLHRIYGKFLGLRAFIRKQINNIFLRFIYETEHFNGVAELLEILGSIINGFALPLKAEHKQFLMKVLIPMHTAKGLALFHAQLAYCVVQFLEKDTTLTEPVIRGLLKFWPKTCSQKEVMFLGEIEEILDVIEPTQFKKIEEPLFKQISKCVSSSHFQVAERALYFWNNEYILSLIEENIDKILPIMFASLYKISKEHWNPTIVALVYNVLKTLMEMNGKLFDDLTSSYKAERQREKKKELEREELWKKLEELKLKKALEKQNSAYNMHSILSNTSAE
UniProt Q8IZP0: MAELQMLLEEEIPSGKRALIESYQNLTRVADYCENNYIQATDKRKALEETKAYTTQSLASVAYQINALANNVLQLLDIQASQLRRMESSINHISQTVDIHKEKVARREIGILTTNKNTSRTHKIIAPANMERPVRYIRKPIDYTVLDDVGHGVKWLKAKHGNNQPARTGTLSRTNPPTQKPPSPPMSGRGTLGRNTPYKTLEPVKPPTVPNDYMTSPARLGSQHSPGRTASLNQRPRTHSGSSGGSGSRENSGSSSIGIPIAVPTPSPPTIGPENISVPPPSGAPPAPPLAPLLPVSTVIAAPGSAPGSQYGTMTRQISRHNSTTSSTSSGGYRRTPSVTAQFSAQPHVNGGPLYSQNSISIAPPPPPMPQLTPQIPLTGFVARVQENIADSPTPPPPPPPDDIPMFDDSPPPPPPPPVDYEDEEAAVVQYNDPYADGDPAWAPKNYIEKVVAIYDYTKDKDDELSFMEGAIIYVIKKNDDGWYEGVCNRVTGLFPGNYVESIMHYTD
UniProt Q70E73: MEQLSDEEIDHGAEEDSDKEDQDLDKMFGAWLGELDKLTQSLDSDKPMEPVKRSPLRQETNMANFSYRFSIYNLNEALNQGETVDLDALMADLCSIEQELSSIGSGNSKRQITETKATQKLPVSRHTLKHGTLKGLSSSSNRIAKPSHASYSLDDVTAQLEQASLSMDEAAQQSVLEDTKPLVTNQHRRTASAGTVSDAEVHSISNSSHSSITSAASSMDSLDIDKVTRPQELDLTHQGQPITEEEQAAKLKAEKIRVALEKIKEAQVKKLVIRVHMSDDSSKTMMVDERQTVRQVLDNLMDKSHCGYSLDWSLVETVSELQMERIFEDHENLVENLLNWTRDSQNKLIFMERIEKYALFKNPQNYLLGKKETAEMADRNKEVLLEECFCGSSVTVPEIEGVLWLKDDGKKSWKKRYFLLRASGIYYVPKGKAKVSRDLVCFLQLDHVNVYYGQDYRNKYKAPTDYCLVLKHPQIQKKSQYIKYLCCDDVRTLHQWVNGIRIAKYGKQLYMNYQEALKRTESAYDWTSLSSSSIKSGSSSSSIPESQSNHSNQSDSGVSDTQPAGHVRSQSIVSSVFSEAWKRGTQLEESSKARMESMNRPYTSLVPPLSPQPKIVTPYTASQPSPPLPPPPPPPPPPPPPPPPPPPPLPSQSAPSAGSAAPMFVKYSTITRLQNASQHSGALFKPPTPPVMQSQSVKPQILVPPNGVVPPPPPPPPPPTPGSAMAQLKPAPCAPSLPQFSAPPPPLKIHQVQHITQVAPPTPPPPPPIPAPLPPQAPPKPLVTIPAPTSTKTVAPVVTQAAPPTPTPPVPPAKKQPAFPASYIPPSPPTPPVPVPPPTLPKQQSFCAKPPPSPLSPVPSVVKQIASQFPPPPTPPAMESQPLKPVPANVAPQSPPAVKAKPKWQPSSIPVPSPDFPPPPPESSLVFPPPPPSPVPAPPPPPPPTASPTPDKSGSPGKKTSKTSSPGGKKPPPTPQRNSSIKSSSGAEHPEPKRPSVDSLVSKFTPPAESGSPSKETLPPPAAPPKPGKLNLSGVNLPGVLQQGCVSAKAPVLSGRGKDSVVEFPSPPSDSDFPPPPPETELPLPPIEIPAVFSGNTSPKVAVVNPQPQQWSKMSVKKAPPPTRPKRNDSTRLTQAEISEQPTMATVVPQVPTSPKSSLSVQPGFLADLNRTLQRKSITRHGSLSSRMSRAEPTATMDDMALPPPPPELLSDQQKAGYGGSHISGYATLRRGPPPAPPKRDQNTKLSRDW
UniProt Q9UQB8: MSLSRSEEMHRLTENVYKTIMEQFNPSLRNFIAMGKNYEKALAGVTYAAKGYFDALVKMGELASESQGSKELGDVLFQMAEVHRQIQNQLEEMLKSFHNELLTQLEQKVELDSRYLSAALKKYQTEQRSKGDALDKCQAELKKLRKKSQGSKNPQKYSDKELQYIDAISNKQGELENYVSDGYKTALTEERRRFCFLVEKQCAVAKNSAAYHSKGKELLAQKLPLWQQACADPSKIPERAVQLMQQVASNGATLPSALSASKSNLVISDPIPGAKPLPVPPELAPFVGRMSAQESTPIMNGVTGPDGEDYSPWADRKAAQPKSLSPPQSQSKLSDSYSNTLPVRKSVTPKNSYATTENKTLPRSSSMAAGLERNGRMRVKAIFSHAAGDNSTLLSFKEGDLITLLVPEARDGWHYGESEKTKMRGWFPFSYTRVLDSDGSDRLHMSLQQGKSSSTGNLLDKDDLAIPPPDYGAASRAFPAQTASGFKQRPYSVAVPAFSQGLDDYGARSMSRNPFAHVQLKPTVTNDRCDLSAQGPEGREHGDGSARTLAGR
UniProt Q6T4R5: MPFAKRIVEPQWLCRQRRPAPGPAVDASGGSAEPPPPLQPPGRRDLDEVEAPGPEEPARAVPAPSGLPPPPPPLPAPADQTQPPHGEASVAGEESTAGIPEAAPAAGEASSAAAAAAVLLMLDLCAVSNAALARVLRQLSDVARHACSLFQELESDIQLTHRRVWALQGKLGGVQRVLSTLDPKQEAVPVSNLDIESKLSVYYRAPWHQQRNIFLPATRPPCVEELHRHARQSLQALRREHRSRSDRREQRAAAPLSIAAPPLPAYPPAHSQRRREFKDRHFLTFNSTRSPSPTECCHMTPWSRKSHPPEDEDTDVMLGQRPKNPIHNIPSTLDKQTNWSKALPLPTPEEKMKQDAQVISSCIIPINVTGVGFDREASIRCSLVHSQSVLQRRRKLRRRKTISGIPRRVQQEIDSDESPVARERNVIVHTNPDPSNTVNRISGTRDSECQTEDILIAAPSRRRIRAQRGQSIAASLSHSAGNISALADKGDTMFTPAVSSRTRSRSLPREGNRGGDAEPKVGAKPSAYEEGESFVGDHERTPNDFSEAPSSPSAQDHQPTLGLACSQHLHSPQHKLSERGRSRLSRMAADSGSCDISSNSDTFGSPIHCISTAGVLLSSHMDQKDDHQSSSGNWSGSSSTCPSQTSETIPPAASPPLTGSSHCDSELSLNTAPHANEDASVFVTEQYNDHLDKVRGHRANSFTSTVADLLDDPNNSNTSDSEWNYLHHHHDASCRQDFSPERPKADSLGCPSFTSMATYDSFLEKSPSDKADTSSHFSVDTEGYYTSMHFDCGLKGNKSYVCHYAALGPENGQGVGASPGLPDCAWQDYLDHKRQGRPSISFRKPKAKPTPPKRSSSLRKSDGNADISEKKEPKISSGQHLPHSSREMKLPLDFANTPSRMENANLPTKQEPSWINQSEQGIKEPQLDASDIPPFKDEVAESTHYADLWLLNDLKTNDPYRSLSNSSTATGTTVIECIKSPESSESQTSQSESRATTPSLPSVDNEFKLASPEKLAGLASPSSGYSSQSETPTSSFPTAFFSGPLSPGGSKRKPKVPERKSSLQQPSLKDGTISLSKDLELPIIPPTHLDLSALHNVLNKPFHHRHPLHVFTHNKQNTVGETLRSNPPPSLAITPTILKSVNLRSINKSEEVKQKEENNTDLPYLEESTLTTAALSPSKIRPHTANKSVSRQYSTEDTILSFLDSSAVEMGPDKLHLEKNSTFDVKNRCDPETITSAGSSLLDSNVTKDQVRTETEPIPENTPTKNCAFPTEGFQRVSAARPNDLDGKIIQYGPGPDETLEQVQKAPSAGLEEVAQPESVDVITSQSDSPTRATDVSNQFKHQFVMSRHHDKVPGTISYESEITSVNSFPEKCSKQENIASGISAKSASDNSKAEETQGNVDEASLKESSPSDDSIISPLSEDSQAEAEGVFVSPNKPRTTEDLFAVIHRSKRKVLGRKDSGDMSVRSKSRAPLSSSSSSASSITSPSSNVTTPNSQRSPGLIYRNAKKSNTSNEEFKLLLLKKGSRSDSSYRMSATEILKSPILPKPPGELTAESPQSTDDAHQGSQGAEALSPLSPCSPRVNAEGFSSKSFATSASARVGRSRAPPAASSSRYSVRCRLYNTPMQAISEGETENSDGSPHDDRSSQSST
UniProt P67775: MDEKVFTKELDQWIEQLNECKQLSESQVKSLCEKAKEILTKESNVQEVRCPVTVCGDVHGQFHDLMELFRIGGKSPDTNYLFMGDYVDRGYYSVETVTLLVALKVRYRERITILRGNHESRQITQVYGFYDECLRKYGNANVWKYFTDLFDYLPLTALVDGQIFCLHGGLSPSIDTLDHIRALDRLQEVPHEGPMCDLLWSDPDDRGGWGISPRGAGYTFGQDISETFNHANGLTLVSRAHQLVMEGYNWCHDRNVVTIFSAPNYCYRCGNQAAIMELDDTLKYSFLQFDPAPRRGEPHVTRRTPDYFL
UniProt P62714: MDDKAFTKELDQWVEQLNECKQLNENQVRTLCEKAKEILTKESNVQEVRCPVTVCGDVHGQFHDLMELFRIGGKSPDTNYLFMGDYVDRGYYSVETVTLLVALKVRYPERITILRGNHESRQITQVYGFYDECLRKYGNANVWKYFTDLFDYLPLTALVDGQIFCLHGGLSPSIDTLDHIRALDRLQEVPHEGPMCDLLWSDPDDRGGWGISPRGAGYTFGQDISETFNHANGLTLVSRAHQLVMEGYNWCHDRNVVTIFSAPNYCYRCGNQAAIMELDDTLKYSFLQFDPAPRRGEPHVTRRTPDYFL

No constants are given. Whether binding was seen depends on the method and setting. In cells and extracts the contact can be indirect. A yes stands for co-enrichment or nearness to the bait. Other partners may have been found. For some of these results: No binding means not detected with the bait.

For one assay, the target named is FLAG-GFP PPP2R1A (UniProt P30153). In words: affinity purification with mass spectrometry; Tandem affinity purification (FLAG then GFP) of FLAG-GFP PPP2R1A from stable MCF10A and MDA-MB-231 cells; XB-NP40 lysis buffer, 4 °C; FLAG-GFP as control.
Regarding WAVE1 (from UniProt Q92558 1-559), the binding result was “no binding”.

Consider PPP2R5A (from UniProt Q15172 1-486), for which the binding result is “binds”.

The next assay addresses FLAG-GFP ABI1 (UniProt Q8IZP0). In words: affinity purification with mass spectrometry; Tandem affinity purification (FLAG-M2 beads, FLAG peptide elution, then GFP-trap) of FLAG-GFP ABI1 from stable MCF10A parental or RAC1 Q61L cells, treated or not with 100 µM CK666 for 16 h; XB-NP40 lysis buffer, 4 °C; FLAG-GFP as control.
For “lamellipodin (from UniProt Q70E73 1-1250)”, the binding result was “binds”.

IRSp53 (from UniProt Q9UQB8 1-552): the binding entry was “binds”.

For the substance NHS (from UniProt Q6T4R5 1-1651), the binding entry is reported as “binds”.

Regarding “PPP2CA (from UniProt P67775 1-309) (enzyme)”, the binding result is listed as “binds”.

For the substance “PPP2CB (from UniProt P62714 1-309) (enzyme)”, the binding result was “binds”.
